Experimental data published in the supplement of paper PMC10849652.
Some of the results follow.

Chains of the proteins cited; added tags and fusions are not shown. Lines headed by an entry give the natural chain unless they say otherwise; changes in a name come on top.
UniProt Q96FZ7: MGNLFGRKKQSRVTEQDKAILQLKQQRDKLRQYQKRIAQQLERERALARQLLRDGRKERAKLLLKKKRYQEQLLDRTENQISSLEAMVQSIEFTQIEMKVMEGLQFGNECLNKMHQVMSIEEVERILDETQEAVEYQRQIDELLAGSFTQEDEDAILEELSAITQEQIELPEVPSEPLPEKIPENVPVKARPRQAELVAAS
UniProt O14757: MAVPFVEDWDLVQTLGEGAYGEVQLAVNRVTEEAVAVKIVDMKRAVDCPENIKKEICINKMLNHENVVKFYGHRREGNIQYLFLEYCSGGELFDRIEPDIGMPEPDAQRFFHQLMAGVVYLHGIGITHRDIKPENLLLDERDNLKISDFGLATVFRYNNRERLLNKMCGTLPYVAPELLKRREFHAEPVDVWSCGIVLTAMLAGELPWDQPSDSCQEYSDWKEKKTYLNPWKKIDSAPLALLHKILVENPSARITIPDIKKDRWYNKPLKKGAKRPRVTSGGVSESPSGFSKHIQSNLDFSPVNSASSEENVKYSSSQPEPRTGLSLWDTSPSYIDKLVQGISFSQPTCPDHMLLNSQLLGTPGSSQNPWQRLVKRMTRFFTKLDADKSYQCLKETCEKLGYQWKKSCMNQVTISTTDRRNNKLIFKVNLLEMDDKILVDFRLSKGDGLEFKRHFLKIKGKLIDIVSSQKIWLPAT
UniProt O15111: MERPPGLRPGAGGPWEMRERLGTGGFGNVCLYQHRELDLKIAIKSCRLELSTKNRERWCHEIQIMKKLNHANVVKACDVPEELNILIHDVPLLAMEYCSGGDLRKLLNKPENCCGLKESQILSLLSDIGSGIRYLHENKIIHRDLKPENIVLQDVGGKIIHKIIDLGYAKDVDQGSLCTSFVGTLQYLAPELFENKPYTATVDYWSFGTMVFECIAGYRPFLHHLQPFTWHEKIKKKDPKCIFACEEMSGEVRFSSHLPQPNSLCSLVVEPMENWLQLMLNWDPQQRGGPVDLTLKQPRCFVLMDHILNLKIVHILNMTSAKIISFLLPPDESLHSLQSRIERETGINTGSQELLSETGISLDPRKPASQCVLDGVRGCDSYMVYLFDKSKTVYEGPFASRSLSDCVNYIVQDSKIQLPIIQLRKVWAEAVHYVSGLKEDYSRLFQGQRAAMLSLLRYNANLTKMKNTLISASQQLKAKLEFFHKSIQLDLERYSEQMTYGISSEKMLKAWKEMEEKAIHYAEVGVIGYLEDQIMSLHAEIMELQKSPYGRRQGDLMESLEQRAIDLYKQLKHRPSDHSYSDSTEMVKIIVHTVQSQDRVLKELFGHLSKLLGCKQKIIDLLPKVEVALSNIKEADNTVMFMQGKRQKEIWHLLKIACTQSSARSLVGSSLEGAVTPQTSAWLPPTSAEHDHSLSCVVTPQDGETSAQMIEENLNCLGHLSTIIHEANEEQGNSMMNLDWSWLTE
UniProt O14578, whole entry, looked up: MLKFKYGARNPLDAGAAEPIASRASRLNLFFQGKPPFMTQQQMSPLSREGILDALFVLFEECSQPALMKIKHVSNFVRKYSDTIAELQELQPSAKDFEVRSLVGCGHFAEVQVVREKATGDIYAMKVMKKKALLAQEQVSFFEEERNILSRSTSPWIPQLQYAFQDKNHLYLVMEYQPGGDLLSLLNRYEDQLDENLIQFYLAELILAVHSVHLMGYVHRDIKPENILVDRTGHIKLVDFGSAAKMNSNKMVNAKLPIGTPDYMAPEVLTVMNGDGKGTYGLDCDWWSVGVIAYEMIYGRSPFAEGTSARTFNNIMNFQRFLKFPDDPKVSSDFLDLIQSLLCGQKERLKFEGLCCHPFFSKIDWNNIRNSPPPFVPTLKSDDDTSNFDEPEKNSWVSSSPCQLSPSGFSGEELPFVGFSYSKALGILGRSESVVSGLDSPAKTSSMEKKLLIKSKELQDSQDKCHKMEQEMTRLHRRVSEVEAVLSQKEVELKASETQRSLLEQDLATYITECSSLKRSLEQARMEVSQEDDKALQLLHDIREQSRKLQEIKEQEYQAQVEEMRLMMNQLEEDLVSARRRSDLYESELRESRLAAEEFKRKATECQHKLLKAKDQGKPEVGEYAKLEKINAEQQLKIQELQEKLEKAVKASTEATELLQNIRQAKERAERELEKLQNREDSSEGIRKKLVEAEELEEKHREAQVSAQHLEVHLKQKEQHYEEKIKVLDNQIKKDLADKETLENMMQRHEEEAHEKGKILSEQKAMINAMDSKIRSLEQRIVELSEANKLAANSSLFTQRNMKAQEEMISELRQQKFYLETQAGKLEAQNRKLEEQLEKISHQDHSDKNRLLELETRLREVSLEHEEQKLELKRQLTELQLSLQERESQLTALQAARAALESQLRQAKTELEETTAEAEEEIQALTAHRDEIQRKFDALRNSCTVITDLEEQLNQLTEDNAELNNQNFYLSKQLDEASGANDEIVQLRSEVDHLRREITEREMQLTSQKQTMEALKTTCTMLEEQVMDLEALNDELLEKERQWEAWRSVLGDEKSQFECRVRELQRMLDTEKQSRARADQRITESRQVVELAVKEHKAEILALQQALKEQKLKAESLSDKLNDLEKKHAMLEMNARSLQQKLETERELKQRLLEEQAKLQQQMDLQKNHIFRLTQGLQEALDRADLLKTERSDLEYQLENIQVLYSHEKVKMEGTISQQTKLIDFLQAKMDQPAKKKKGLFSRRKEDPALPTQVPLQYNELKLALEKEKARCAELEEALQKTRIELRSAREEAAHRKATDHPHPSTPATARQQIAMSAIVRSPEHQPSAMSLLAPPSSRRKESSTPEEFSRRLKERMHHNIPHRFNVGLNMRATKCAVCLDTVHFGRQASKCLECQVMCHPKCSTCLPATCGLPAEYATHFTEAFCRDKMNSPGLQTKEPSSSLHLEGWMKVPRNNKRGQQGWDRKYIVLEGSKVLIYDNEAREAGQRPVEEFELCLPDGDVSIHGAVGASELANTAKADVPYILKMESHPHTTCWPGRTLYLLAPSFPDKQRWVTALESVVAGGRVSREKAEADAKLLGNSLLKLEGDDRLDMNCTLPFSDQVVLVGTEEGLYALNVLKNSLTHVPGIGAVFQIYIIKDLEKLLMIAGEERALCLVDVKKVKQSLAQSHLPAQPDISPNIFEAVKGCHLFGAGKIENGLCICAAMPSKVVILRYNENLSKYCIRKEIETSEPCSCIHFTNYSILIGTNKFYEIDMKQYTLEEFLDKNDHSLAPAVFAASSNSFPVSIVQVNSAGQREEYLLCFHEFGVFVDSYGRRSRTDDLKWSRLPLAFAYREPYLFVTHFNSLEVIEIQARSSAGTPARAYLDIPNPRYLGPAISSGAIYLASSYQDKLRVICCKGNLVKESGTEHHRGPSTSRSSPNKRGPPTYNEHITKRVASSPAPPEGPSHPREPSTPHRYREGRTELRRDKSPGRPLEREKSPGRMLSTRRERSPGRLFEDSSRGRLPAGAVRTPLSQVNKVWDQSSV
UniProt Q8WWK9: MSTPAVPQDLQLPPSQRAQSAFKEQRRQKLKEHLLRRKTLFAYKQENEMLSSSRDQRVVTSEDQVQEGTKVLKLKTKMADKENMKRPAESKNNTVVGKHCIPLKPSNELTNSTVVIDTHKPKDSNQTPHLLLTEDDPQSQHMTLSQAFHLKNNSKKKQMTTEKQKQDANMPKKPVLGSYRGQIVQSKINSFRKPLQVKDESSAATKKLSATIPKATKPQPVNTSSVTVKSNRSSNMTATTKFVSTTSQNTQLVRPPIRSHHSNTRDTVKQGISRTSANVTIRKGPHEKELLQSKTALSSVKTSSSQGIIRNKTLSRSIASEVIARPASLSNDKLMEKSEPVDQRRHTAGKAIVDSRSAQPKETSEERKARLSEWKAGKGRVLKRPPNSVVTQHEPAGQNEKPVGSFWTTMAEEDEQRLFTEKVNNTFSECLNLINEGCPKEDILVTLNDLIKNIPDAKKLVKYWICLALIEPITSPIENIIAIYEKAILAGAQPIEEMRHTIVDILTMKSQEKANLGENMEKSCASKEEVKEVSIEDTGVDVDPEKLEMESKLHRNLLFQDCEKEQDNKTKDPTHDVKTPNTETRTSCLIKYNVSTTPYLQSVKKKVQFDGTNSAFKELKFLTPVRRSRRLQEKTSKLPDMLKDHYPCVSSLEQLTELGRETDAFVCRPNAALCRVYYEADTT
UniProt P0C7P0: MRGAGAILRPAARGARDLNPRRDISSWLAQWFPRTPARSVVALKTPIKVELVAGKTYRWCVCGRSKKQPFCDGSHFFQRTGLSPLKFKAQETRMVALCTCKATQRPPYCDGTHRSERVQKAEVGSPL
UniProt O14967: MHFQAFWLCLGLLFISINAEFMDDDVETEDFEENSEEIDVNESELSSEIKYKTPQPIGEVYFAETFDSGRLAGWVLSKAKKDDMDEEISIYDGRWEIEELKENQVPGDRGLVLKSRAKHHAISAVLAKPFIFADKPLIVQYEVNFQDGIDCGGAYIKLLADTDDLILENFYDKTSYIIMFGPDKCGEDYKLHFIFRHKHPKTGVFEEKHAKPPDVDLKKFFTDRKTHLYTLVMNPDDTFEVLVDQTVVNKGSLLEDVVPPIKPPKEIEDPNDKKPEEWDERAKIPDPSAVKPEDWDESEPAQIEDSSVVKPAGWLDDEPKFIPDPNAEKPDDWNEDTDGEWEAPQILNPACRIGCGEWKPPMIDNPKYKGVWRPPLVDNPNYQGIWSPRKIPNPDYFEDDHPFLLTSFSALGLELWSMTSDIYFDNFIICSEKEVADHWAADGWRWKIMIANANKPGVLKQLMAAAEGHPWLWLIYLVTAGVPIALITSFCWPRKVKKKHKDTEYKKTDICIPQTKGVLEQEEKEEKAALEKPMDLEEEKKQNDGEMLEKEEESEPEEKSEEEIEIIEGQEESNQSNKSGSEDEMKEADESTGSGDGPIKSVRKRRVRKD
UniProt Q9NZ45: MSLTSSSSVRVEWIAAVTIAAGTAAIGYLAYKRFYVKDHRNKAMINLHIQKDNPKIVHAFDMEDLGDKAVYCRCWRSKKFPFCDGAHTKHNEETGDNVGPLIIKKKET
UniProt Q9BY43: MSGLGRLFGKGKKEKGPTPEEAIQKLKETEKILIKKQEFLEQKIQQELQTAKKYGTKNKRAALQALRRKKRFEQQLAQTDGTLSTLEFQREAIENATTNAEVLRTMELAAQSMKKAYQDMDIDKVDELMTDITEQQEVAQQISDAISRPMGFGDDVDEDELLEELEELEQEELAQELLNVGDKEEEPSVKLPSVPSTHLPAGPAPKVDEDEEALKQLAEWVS
UniProt Q8N5K1: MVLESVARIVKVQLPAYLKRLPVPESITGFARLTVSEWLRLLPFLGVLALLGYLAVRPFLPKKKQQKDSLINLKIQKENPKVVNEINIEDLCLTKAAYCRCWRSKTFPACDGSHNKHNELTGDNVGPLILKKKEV
UniProt Q99828: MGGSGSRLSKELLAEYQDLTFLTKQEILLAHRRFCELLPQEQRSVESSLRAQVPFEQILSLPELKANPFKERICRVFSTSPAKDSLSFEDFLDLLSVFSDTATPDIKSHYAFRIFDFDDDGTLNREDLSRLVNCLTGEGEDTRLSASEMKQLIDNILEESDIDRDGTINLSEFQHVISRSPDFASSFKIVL
UniProt Q9NY35: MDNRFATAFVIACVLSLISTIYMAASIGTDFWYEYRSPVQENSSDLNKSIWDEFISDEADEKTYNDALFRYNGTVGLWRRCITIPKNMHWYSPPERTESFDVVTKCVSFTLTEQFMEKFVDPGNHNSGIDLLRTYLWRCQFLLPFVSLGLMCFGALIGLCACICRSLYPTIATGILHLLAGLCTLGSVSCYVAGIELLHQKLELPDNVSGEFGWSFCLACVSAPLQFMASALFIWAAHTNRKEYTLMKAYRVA
UniProt Q7Z7K0: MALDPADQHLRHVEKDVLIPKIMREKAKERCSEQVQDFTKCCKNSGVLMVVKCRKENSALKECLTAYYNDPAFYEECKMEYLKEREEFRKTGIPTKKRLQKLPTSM
UniProt Q96DG6: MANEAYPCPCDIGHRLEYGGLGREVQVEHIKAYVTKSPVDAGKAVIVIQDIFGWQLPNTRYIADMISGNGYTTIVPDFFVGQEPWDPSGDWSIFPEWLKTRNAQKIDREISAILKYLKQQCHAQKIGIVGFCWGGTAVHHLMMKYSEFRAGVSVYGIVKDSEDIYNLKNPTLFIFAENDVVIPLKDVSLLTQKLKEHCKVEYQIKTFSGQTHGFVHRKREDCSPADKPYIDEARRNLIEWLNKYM
UniProt Q96MX0: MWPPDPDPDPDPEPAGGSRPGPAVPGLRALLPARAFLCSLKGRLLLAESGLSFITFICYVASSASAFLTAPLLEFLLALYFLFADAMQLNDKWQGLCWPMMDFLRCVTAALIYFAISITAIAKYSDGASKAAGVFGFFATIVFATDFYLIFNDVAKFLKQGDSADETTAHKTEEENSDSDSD
UniProt O43633: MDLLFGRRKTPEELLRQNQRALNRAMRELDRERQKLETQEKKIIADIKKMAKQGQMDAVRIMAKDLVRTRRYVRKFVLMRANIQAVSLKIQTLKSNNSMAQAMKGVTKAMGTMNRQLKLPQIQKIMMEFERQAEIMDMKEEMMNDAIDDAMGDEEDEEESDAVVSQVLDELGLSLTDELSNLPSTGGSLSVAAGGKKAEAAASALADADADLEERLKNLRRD

Columns and labels:
Assay in all cases: log2 fold change, soluble protein after heating vs DMSO (PISA); higher = thermal stabilisation; K562 lysate, 10 uM; active = over 0.2 and 3.5 SD of the protein, either way, in both replicates (recomputed)
alvocidib = compound: CN1CC[C@H](c2c(O)cc(O)c3c(=O)cc(-c4ccccc4Cl)oc23)[C@H](O)C1 [alvocidib]
In short: (§1)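 A 30 min treatment with 10 μM compound was applied to crude K562 extract at 1 mg/mL protein in PBS pH 7.4 with 1 mM MgCl2. Heating for 3 min spanned 48°C-58°C, after which aliquots were pooled, adjusted to 0.5% NP-40 at 4°C and spun at 21,000xg for 90 min. TMTpro 16plex LC-MS/MS of the supernatant, with channel sums equalised, gave values recorded as log-two fold change in thermal stability against solvent controls, from duplicates.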

Tubastatin A = compound: CN1CCc2c(c3ccccc3n2Cc2ccc(C(=O)NO)cc2)C1 [Tubastatin A]
In short: as §1

[1] = compound: CNC(=O)C1=CC=CC=C1NC2=NC(=NC=C2Cl)NC3=C(C=C(C=C3)N4CCOCC4)OC
In short: as §1

defactinib = compound: CNC(=O)c1ccc(Nc2ncc(C(F)(F)F)c(NCc3nccnc3N(C)S(C)(=O)=O)n2)cc1 [defactinib]
In short: as §1

[2] = compound: CNc1nc(-c2ccc3c(N)n[nH]c3c2)cc(N2C[C@@H](C(=O)NC3CCCCC3)CC[C@H]2C)n1
In short: as §1

encorafenib = compound: COC(=O)N[C@@H](C)CNc1nccc(-c2cn(C(C)C)nc2-c2cc(Cl)cc(NS(C)(=O)=O)c2F)n1 [encorafenib]
In short: as §1

[3] = compound: COC(=O)[C@H](CCSC)NC(=O)C1=C(C=C(C=C1)NC[C@H](CS)N)C2=CC=CC=C2
In short: as §1

alisertib = compound: COc1cc(Nc2ncc3c(n2)-c2ccc(Cl)cc2C(c2c(F)cccc2OC)=NC3)ccc1C(=O)O [alisertib]
In short: as §1

[4] = compound: COc1cc2nc(-c3cc(F)ccc3O)nc(N[C@@H]3CNC[C@H]3C(C)(C)O)c2cc1OC
In short: as §1

gefitinib = compound: COc1cc2ncnc(Nc3ccc(F)c(Cl)c3)c2cc1OCCCN1CCOCC1 [gefitinib]
In short: as §1

Measured: log2 fold change

CHMP6 (UniProt Q96FZ7)
inactive: alvocidib -0.052 | Tubastatin A 0.087 | [1] 0.009 | defactinib 0.036 | [2] 0.024 | encorafenib 0.086 | [3] -0.029 | alisertib -0.152 | [4] -0.089 | gefitinib -0.116

CHEK1 (UniProt O14757)
inactive: alvocidib 0.01 | Tubastatin A 0.072 | [1] -0.063 | defactinib -0.021 | [2] -0.002 | encorafenib 0.002 | [3] -0.008 | alisertib 0.008 | [4] -0.178 | gefitinib 0.013

CHUK (UniProt O15111)
inactive: alvocidib 0.029 | Tubastatin A -0.203 | [1] 0.077 | defactinib 0.089 | [2] -0.039 | encorafenib -0.021 | [3] 0.121 | alisertib 0.018 | [4] 0.052 | gefitinib -0.06

CIT isoform 4 (UniProt O14578)
inactive: alvocidib -0.059 | Tubastatin A -0.044 | [1] 0.029 | defactinib 0.001 | [2] 0.064 | encorafenib 0.007 | [3] -0.065 | alisertib -0.011 | [4] 0.036 | gefitinib 0.063

CHCHD2 (UniProt Q9Y6H1)
inactive: alvocidib -0.061 | Tubastatin A 0.031 | [1] -0.003 | defactinib -0.079 | [2] -0.024 | encorafenib -0.044 | [3] -0.126 | alisertib -0.051 | [4] -0.033 | gefitinib 0.28

CHD7 (UniProt Q9P2D1)
inactive: alvocidib 0.009 | Tubastatin A -0.251 | [1] 0.026 | defactinib 0.05 | [2] 0.069 | encorafenib 0.058 | [3] 0.093 | alisertib 0.03 | [4] 0.003 | gefitinib 0.022

CKAP2 (UniProt Q8WWK9)
inactive: alvocidib -0.059 | Tubastatin A -0.009 | [1] 0.071 | defactinib -0.075 | [2] 0.028 | encorafenib 0.097 | [3] -0.092 | alisertib -0.044 | [4] 0.049 | gefitinib 0.06

CISD3 (UniProt P0C7P0)
inactive: alvocidib -0.029 | Tubastatin A 0.028 | [1] -0.043 | defactinib 0.014 | [2] 0.066 | encorafenib -0.028 | [3] -0.039 | alisertib -0.032 | [4] 0.03 | gefitinib 0.023

CHMP4B (UniProt Q9H444)
inactive: alvocidib -0.02 | Tubastatin A 0.01 | [1] -0.01 | defactinib -0.081 | [2] -0.005 | encorafenib 0.006 | [3] -0.009 | alisertib -0.024 | [4] -0.022 | gefitinib 0.043

CLGN (UniProt O14967)
inactive: alvocidib -0.027 | Tubastatin A 0.003 | [1] 0 | defactinib 0.015 | [2] 0.036 | encorafenib 0.019 | [3] -0.011 | alisertib 0.021 | [4] 0.022 | gefitinib 0.056

CHD5 (UniProt Q8TDI0)
inactive: alvocidib -0.005 | Tubastatin A -0.022 | [1] 0 | defactinib -0.042 | [2] 0.037 | encorafenib 0.024 | [3] 0.033 | alisertib -0.016 | [4] -0.009 | gefitinib -0.001

CHM (UniProt P24386)
inactive: alvocidib -0.039 | Tubastatin A -0.01 | [1] 0.046 | defactinib -0.15 | [2] 0.042 | encorafenib 0.025 | [3] 0.058 | alisertib 0.068 | [4] -0.005 | gefitinib 0.042

CISD1 (UniProt Q9NZ45)
inactive: alvocidib -0.021 | Tubastatin A 0.087 | [1] -0.032 | defactinib -0.004 | [2] 0.035 | encorafenib -0.048 | [3] 0.003 | alisertib 0.036 | [4] 0.015 | gefitinib -0.074

CHMP4A isoform 2 (UniProt Q9BY43)
inactive: alvocidib -0.096 | Tubastatin A 0.048 | [1] -0.01 | defactinib 0.007 | [2] 0.039 | encorafenib 0.026 | [3] -0.001 | alisertib 0.028 | [4] 0.043 | gefitinib 0.041

CISD2 (UniProt Q8N5K1)
inactive: alvocidib -0.029 | Tubastatin A 0.065 | [1] -0.006 | defactinib 0.02 | [2] 0.05 | encorafenib 0.007 | [3] -0.095 | alisertib -0.046 | [4] 0.059 | gefitinib 0.051

CLCN7 (UniProt P51798)
inactive: alvocidib -0.032 | Tubastatin A 0.03 | [1] -0.038 | defactinib -0.006 | [2] -0.086 | encorafenib 0.019 | [3] -0.022 | alisertib -0.04 | [4] 0 | gefitinib -0.046

CIB1 (UniProt Q99828)
inactive: alvocidib -0.003 | Tubastatin A -0.037 | [1] 0.01 | defactinib 0.038 | [2] 0.041 | encorafenib -0.001 | [3] -0.215 | alisertib -0.031 | [4] 0.072 | gefitinib -0.124

CMC2 (UniProt Q9NRP2)
inactive: alvocidib -0.073 | Tubastatin A -0.017 | [1] 0.012 | defactinib 0.038 | [2] -0.028 | encorafenib -0.056 | [3] -0.145 | alisertib 0.005 | [4] -0.018 | gefitinib 0.198

CLDND1 (UniProt Q9NY35)
inactive: alvocidib -0.03 | Tubastatin A -0.03 | [1] -0.052 | defactinib 0.015 | [2] -0.026 | encorafenib -0.062 | [3] -0.05 | alisertib 0.018 | [4] 0.054 | gefitinib -0.024

CMC1 (UniProt Q7Z7K0)
inactive: alvocidib -0.093 | Tubastatin A 0.047 | [1] 0.031 | defactinib -0.07 | [2] -0.041 | encorafenib 0.018 | [3] -0.042 | alisertib -0.022 | [4] 0 | gefitinib 0.197

CKS1B (UniProt P61024)
inactive: alvocidib 0.117 | Tubastatin A -0.001 | [1] 0.032 | defactinib 0.075 | [2] -0.055 | encorafenib 0.04 | [3] -0.014 | alisertib -0.031 | [4] -0.024 | gefitinib 0.071

CMBL (UniProt Q96DG6)
inactive: alvocidib 0.006 | Tubastatin A 0.001 | [1] -0.012 | defactinib -0.051 | [2] 0.013 | encorafenib -0.051 | [3] -0.009 | alisertib 0.001 | [4] 0.038 | gefitinib 0.03

CLNS1A (UniProt P54105)
inactive: alvocidib -0.002 | Tubastatin A 0.01 | [1] 0.033 | defactinib 0.013 | [2] 0.041 | encorafenib -0.001 | [3] -0.064 | alisertib -0.024 | [4] -0.003 | gefitinib -0.035

CMTM3 (UniProt Q96MX0)
inactive: alvocidib -0.007 | Tubastatin A -0.231 | [1] 0.04 | defactinib -0.022 | [2] 0.061 | encorafenib -0.011 | [3] 0.064 | alisertib -0.099 | [4] -0.036 | gefitinib -0.123

CLCN3 (UniProt P51790)
inactive: alvocidib -0.03 | Tubastatin A -0.012 | [1] -0.042 | defactinib -0.024 | [2] -0.194 | encorafenib 0.05 | [3] 0.003 | alisertib 0.005 | [4] -0.043 | gefitinib 0.029

Pulled one by one from the entries so far (2):
CLNS1A (UniProt P54105)
inactive: alvocidib -0.002 | Tubastatin A 0.01 | [1] 0.033 | defactinib 0.013 | [2] 0.041 | encorafenib -0.001 | [3] -0.064 | alisertib -0.024 | [4] -0.003 | gefitinib -0.035

CLCN3 (UniProt P51790)
inactive: alvocidib -0.03 | Tubastatin A -0.012 | [1] -0.042 | defactinib -0.024 | [2] -0.194 | encorafenib 0.05 | [3] 0.003 | alisertib 0.005 | [4] -0.043 | gefitinib 0.029

(further entries)

CHMP2A (UniProt O43633)
inactive: alvocidib -0.043 | Tubastatin A 0.017 | [1] 0.042 | defactinib 0.009 | [2] -0.001 | encorafenib 0.026 | [3] -0.031 | alisertib 0.017 | [4] -0.033 | gefitinib 0.006
